The test system of the experiment is BDF1 mice, P388 leukemia ip, median survival T/C. The experiment is described as follows: NCI In Vivo Anticancer Drug Screen. Data for tumor model P388 Leukemia (intraperitoneal) in B6D2F1 (BDF1) mice. The settings on record: T/C endpoint: median survival time, higher T/C = longer survival. The procedure, abridged:
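Compound-treated tumour-bearing mice were compared with vehicle-treated controls. Survival was recorded, and the value is the treated-group measurement divided by the control-group measurement (T/C).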

[1] abbreviates: dose: 50.0 mg/kg/injection, schedule: Q01DX009 (ip), vehicle: saline.
Where [2] appears, read: dose: 100.0 mg/kg/injection, schedule: Q01DX009 (ip), vehicle: saline with Tween-80.
The mark [3] stands for this setting: dose: 150.0 mg/kg/injection, schedule: Q01DX009 (ip), vehicle: saline with Tween-80.
[4] abbreviates: dose: 200.0 mg/kg/injection, schedule: Q01DX009 (ip), vehicle: saline with Tween-80.
The mark [5] stands for this setting: dose: 400.0 mg/kg/injection, schedule: Q01DX009 (ip), vehicle: saline with Tween-80.
[6] abbreviates: dose: 50.0 mg/kg/injection, schedule: Q01DX009 (ip), vehicle: saline with Tween-80.
[7] abbreviates: dose: 100.0 mg/kg/injection, schedule: Q01DX009 (ip), vehicle: Klucel (hydroxypropylcellulose) (HPC).
The mark [8] stands for this setting: dose: 400.0 mg/kg/injection, schedule: Q01DX009 (ip), vehicle: Klucel (hydroxypropylcellulose) (HPC).
Setting [9] is: dose: 25.0 mg/kg/injection, schedule: Q04DX003 (ip), vehicle: saline with Tween-80.
The mark [10] stands for this setting: dose: 100.0 mg/kg/injection, schedule: Q01DX009 (ip), vehicle: saline.
[11] abbreviates: dose: 200.0 mg/kg/injection, schedule: Q01DX009 (ip), vehicle: saline.

The list is a part of this screen's results and no random one: it gathers tests that were run many times, whatever their T/C, doses with no T/C, and many T/C values between a quarter and a half above the control. Other doses and runs of a compound stand elsewhere. T/C: endpoint of the treated group in % of that of the vehicle group. Some doses have a count of surviving animals in place of a T/C: the source holds a T/C of zero for them, seemingly a mark for toxic or unscored doses. Some survivor counts are full or nearly so, which does not show that the dose was tolerated: survival well below the control is almost never listed, so the zero probably covers shortened survival too. Counts of survivors are from the toxicity check (mostly the fifth day) where no day follows; animals may have died later. Schedules are NCI's codes, read here as Q, the interval in days (D) or hours (H), X, the number of doses. For survival time, this PubChem deposit counts one and a half times the control or more as active, and values a quarter to a half above the control carry no call in these data; other NCI protocols may use other cut-offs. Signs of the kind (2×) give the number of equal values in this list. Some entries were tested several times; the values are given in rising order. Some T/C values carry the count of animals alive at the toxicity check (mostly the fifth day); where none is given, no animal had died by that day.

For the molecule `C=C1CC(OC(C)=O)C2C(OC(=O)C2(C)OC(=O)/C(C)=C\C)C2C(C)=CC(=O)C12` (stereo not given), the survivor count was 6 of 6 (dose: 16.0 mg/kg/injection, schedule: Q01DX009 (ip), vehicle: Klucel (hydroxypropylcellulose) (HPC)) and 6 of 6 (dose: 32.0 mg/kg/injection, schedule: Q01DX009 (ip), vehicle: Klucel (hydroxypropylcellulose) (HPC)).

`Nc1cc(NC(=O)c2ccc(Cl)cc2)ccc1S(=O)(=O)O`: under setting [1], the survivor count was 6 of 6.

In the case of `CCCCCCCCCCCCCS`, the T/C (dose: 66.0 mg/kg/injection, schedule: Q01DX009 (ip), vehicle: saline with Tween-80) is 127 % of control. The survivor count by setting is: under setting [2], 3 of 6; under setting [3], 3 of 6.

Regarding `O=S(=O)(OCCF)c1cc(Cl)c(Cl)cc1Cl`, the survivor count reads like this: (dose: 100.0 mg/kg/injection, schedule: Q01DX005 (ip), vehicle: Klucel (hydroxypropylcellulose) (HPC)) 3 of 6; (dose: 200.0 mg/kg/injection, schedule: Q01DX005 (ip), vehicle: Klucel (hydroxypropylcellulose) (HPC)) 1 of 6.

Take `Cc1cc2nc3c(=O)[nH]c(=O)nc-3n(CC(O)C(O)C(O)C(O)CO)c2cc1C` (stereo not given): the survivor count (dose: 50.0 mg/kg/injection, schedule: Q01DX010 (ip), vehicle: saline) is 6 of 6. Also, the T/C (dose: 200.0 mg/kg/injection, schedule: Q01DX010 (ip), vehicle: saline) is 125 % of control.

Consider `CCC(=O)OCC(=O)[C@]1(O)Cc2c(O)c3c(c(O)c2[C@@H](OC2CC(N)C(O)C(C)O2)C1)C(=O)c1c(OC)cccc1C3=O` (stereo not given in full), for which the survivor count runs as follows: (dose: 4.0 mg/kg/injection, schedule: Q01DX009 (ip), vehicle: saline) 6 of 6; (dose: 8.0 mg/kg/injection, schedule: Q01DX009 (ip), vehicle: saline) 5 of 6.

In the case of `c1ccc(N2CCCCCN2c2ccccc2)cc1`, the survivor count (dose: 400.0 mg/kg/injection, schedule: Q01DX001 (ip), vehicle: saline with Tween-80) is reported as 6 of 6.

Regarding `COc1ccc(/C=C/C(=O)c2ccc3c(c2)OCO3)cc1OC`, the T/C (dose: 88.0 mg/kg/injection, schedule: Q01DX009 (ip), vehicle: saline with Tween-80) is 127 % of control; the T/C (dose: 132.0 mg/kg/injection, schedule: Q01DX009 (ip), vehicle: saline with Tween-80) was 127 % of control; the T/C (dose: 133.0 mg/kg/injection, schedule: Q01DX009 (ip), vehicle: saline with Tween-80) was 127 % of control; the T/C under setting [3] was 127 % of control; the T/C under setting [4] was 136 % of control (2×); the T/C (dose: 300.0 mg/kg/injection, schedule: Q01DX009 (ip), vehicle: saline with Tween-80) was 141 and 145 % of control.

Regarding `Clc1ccc(CSc2ncnc3nc[nH]c23)cc1`, the survivor count under setting [5] is on record as 0 of 6.

As for `O=c1nc(Oc2ccccc2)nc2ccc(Cl)nn12`, the survivor count under setting [4] is 1 of 6.

For `O=C1c2c(O)ccc(O)c2C(=O)c2c(NCCNCCO)ccc(NCCNCCO)c21`, the survivor count reads like this: (dose: 6.25 mg/kg/injection, schedule: Q01DX009 (ip), vehicle: water) 6 of 6; (dose: 12.5 mg/kg/injection, schedule: Q01DX009 (ip), vehicle: water) 3 of 6.

On to `CN(C)c1nc(NC(=O)NC(=O)c2c(F)cccc2F)nc(N(C)C)n1`, for which the survivor count is given as 6 of 6 under setting [6] and 6 of 6 under setting [2].

`Clc1ccc(CNc2ncnc3[nH]ncc23)cc1Cl`: the survivor count was 6 of 6 under setting [2], 4 of 6 under setting [4] and 1 of 6 under setting [5].

Regarding `CCOc1ccc(/C=N\N=C\c2ccc(OCC)cc2)cc1`, the survivor count reads like this: (dose: 50.0 mg/kg/injection, schedule: Q01DX009 (ip), vehicle: Klucel (hydroxypropylcellulose) (HPC)) 6 of 6; under setting [7], 6 of 6; (dose: 200.0 mg/kg/injection, schedule: Q01DX009 (ip), vehicle: Klucel (hydroxypropylcellulose) (HPC)) 6 of 6; under setting [8], 6 of 6.

Take `C=C(CCC(C(=O)O)C1CCC2(C)C3=C(CCC12C)C1(C)CCC(O)C(C)(C)C1CC3)C(C)C` (stereo not given): the survivor count by setting is: (dose: 50.0 mg/kg/injection, schedule: Q01DX009 (sc), vehicle: steroid suspending solution) 6 of 6; (dose: 200.0 mg/kg/injection, schedule: Q01DX009 (ip), vehicle: steroid suspending solution) 5 of 6.

On to `COc1ccc(/C=C2\CCC3C(CCCC34OCCO4)C2=O)cc1` (stereo not given), for which, under setting [7], the T/C was 127 % of control.

Consider `CCCCN(CCCC)CCC(O)c1cc(-c2ccc(Cl)c(Cl)c2)nc2c(Cl)cc(Cl)cc12` (stereo not given), for which the survivor count under setting [4] is reported as 5 of 6.

For `C#CC(C)OCC(C)OC` (stereo not given), under setting [9], the T/C is 145 % of control.

`c1ccc(C2=C([P+](c3ccccc3)(c3ccccc3)c3ccccc3)CCN2)cc1`: the T/C runs as follows: (dose: 3.12 mg/kg/injection, schedule: Q01DX009 (ip), vehicle: saline with Tween-80) 135 % of control; (dose: 6.25 mg/kg/injection, schedule: Q01DX009 (ip), vehicle: saline with Tween-80) 140 % of control.

On to `COC(=O)c1c(Cl)c(Cl)c(Cl)c(Cl)c1C(=O)O`, for which the survivor count is, setting by setting: under setting [2], 3 of 6; under setting [4], 2 of 6.

Turning to `Cc1c(CNc2ccc(C(=O)NC(CC(=O)O)CC(=O)O)cc2)ccc2nc(N)nc(N)c12`, the survivor count is, setting by setting: (dose: 3.0 mg/kg/injection, schedule: Q01DX009 (ip), vehicle: saline) 5 of 6; (dose: 4.5 mg/kg/injection, schedule: Q01DX009 (ip), vehicle: saline) 5 of 6; (dose: 6.0 mg/kg/injection, schedule: Q01DX009 (ip), vehicle: saline) 5 of 6.

For the molecule `COC(=O)C1=C(C)NC2(C)SC1C(C)C2C(=O)OC` (stereo not given), the T/C under setting [6] was 125 % of control.

On to `CCOC(=O)Nc1cc(NC(c2ccccc2)c2ccccc2)c2[nH]cnc2n1`, for which the T/C (dose: 30.0 mg/kg/injection, schedule: Q04DX003 (ip), vehicle: saline with Tween-80) was 133 % of control.

On to `c1cc[c]([Pb]([c]2ccccc2)([c]2ccccc2)[n]2cccc2)cc1`, for which the T/C (dose: 85.0 mg/kg/injection, schedule: Q04DX003 (ip), vehicle: Klucel (hydroxypropylcellulose) (HPC)) is 127 % of control.

As for `OCCNCc1ccccc1`, the survivor count (dose: 200.0 mg/kg/injection, schedule: Q04DX003 (ip), vehicle: water) was 3 of 6.

`CN1CCC2=C(C1)C(c1ccccc1)c1ccccc12` (stereo not given): the T/C under setting [1] was 125 % of control. Moreover, the survivor count under setting [10] is 4 of 6.

With `NC(=O)NC1C(c2ccccc2)=NOC1C(N)=O` (stereo not given), the survivor count under setting [8] is on record as 0 of 6.

Consider `COc1ccc(CC2c3ccccc3CC[N+]2(C)C)cc1Oc1ccc(CC2c3ccccc3CC[N+]2(C)C)cc1` (stereo not given), for which the survivor count is 0 of 6 (dose: 1.56 mg/kg/injection, schedule: Q04DX003 (ip), vehicle: saline); 1 of 6 (dose: 3.13 mg/kg/injection, schedule: Q04DX003 (ip), vehicle: saline with Tween-80); 0 of 6 (dose: 6.25 mg/kg/injection, schedule: Q04DX003 (ip), vehicle: saline with Tween-80); 0 of 6 under setting [9]; 0 of 6 (dose: 50.0 mg/kg/injection, schedule: Q04DX003 (ip), vehicle: saline with Tween-80); 0 of 6 (dose: 100.0 mg/kg/injection, schedule: Q04DX003 (ip), vehicle: saline with Tween-80).

In the case of `CCN(CC)CCCCCNc1cc(Cl)c(Cl)cc1[N+](=O)[O-]`, the survivor count under setting [11] is listed as 0 of 6.

Consider `N/C(=N/N=C/c1ccncc1)N[N+](=O)[O-]`, for which the survivor count under setting [10] was 4 of 6 and the survivor count under setting [11] is 1 of 6.

As to `CCC(C(=O)O)c1ccccc1` (stereo not given), the survivor count under setting [2] was 6 of 6.

Turning to `CC=C(/C(=C/C)c1ccc(O)cc1)c1ccc(O)cc1`, the T/C reads like this: under setting [2], 136 % of control; under setting [4], 136 % of control [5 of 6 alive]; under setting [5], 127 % of control.

In the case of `CCOC(=O)/C=C\CBr`, the survivor count (dose: 96.0 mg/kg/injection, schedule: Q01DX010 (ip), vehicle: saline) was 4 of 6.
